Reference: PubChem BioAssay AID493014 (National Center for Advancing Translational Sciences (NCATS), 2011)
Some of the results follow. Further columns of the screen follow, without active or inactive calls. Most of these compounds were active or inconclusive in the main read-out, so they are no random draw. Words in brackets tell the shape of the fitted curve; partial curves, single points and poor fits give uncertain potencies.

Assay: qHTS Assay to Find Inhibitors of Chronic Active B-Cell Receptor Signaling
Conditions: ABC-DLBCL IkBa-CBG/CBR reporter, luminescence ratio (green luciferase fused to IkBa over red control in TMD8 lymphoma cells), 4 h
Method in brief: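 Doxycycline induced both beetle luciferases in TMD8 lymphoma cells; IKK-driven degradation limits the IkappaBalpha-fused green signal, while red luminescence normalises for cell number and nonspecific effects. Compounds tested up to 46 uM, 4 hrs.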

[1] = measured here: CBR red luminescence, cell number
[2] = measured here: IkBa-CBG green luminescence

Row | SMILES | AC50 [1] | AC50 [2]
1 | COc1ccc(NC(=O)C2C3C=CC4(O3)C2C(=O)N(CCN2CCCCC2C)C4C(=O)NC2CCCC(C)C2C)cc1 (stereo unspecified) | 14.1 µM [rising, partial curve, poor fit] | –
2 | O=C(NC(=S)Nc1ccc(Cc2ccncc2)cc1)c1ccccc1F | 35.5 µM [falling, single point] | –
3 | COc1ccc(CCNC(=O)c2cc(=O)[nH]c3ccc(S(=O)(=O)N4CCCCC4C)cc23)cc1OC (stereo unspecified) | 0.1 µM [rising, full curve, poor fit] | 11.2 µM [falling, single point]
4 | Cc1ccc(NC(=O)CSc2ccc3c(c2)OCCO3)nc1 | 2.91 µM [falling, partial curve] | –
5 | COc1cc(NC(C)CCCN)c2ncccc2c1 (stereo unspecified) | 18.4 µM [falling, single point] | 20.6 µM [rising, partial curve, poor fit]
6 | COc1cc(CCC(=O)OCC(=O)Nc2ccc(C(N)=O)cc2)cc(OC)c1OC | 22.4 µM [rising, single point] | –
7 | Cc1ccc(-n2nnc(-c3cccnc3Cl)n2)cc1 | 4.47 µM [rising, partial curve, poor fit] | –
8 | O=C(CC1CCCC1)Nc1ccc2c(c1)CCC2 | 2.82 µM [rising, partial curve, poor fit] | –
9 | CN1Cc2sc(NC(=S)NC(=O)c3ccccc3)c(C#N)c2CC1(C)C | 35.5 µM [falling, single point] | –
10 | Cc1ccc(NCN2C(=O)C3C4C=CC(C4)C3C2=O)cc1 (stereo unspecified) | 12.6 µM [rising, single point] | –
11 | COc1cc(C2Nc3ccc4ncccc4c3C3=C2C(=O)CC(C)(C)C3)cc(OC)c1O (stereo unspecified) | 1.64 µM [rising, partial curve] | –
12 | COc1ccc(C2c3cccn3CCN2S(=O)(=O)c2ccccc2[N+](=O)[O-])cc1OC (stereo unspecified) | 0.355 µM [rising, full curve, poor fit] | –
13 | Cc1ccc(C2CCN(C(=S)Nc3cccc(Cl)c3)C2)cc1 (stereo unspecified) | 0.708 µM [rising, full curve] | –
14 | COc1cccc(NC(=O)COC(=O)c2ccccc2SCC(=O)N2CCCC2)c1 | 1.3 µM [rising, full curve, poor fit] | –
15 | O=C(N/N=C/c1nn(-c2ccccc2)cc1-c1ccccc1)c1ccncc1 | 4.11 µM [rising, full curve, poor fit] | –
16 | CCc1nc(Nc2cccc(F)c2)c2oc3ccccc3c2n1 | 0.501 µM [falling, full curve] | –
17 | O=c1c2ccccc2nc(-c2ccccc2)n1Cc1ccc(Cl)cc1 | 0.164 µM [rising, full curve, poor fit] | –
18 | CCc1[nH]nc(C(=O)N/N=C/c2ccncc2)c1C | 11.2 µM [falling, single point] | –
19 | CCOc1ccc(C(=O)CC(NCc2cccs2)C(=O)O)cc1 (stereo unspecified) | 25.1 µM [falling, single point] | –
20 | COc1cc(/C=C2\SC(=O)N(c3ccc(Cl)cc3)C2=O)cc([N+](=O)[O-])c1O | 22.4 µM [falling, single point] | –
21 | O=C(CCl)N(CCc1ccccc1)CCc1ccccc1 | 35.5 µM [falling, single point] | –

Complete entries from above. Order of values: AC50 [1] | AC50 [2]
`O=C(CC1CCCC1)Nc1ccc2c(c1)CCC2` is listed with 2.82 µM [rising, partial curve, poor fit] | –
`CCc1[nH]nc(C(=O)N/N=C/c2ccncc2)c1C` is listed with 11.2 µM [falling, single point] | –
`Cc1ccc(NC(=O)CSc2ccc3c(c2)OCCO3)nc1` is listed with 2.91 µM [falling, partial curve] | –
`COc1cc(C2Nc3ccc4ncccc4c3C3=C2C(=O)CC(C)(C)C3)cc(OC)c1O` (stereo unspecified) is listed with 1.64 µM [rising, partial curve] | –

Following part:

Row | SMILES | AC50 [1] | AC50 [2]
22 | Cc1c(C(=O)NNC(=O)c2ccncc2)oc2ccccc12 | 11.6 µM [falling, partial curve] | –
23 | COC(=O)c1cccc(COC(=O)c2ccc(N(C)C)cc2)c1 | 4.11 µM [rising, full curve, poor fit] | –
24 | CC(=O)N1N=C(c2ccncc2)OC12CCCCC2 | 7.08 µM [rising, partial curve, poor fit] | –
25 | CC(C)NC(=O)c1ccc2c(c1)N(CC(=O)NC1CCCCC1)C(=O)C(C)(C)O2 | 17.8 µM [rising, partial curve, poor fit] | –
26 | O=C(OCc1cc(=O)n2c(n1)sc1ccccc12)c1cccc(O)c1 | 1.84 µM [falling, partial curve, poor fit] | –
27 | COc1cccc(Cn2c(=O)n(-c3cccc(Cl)c3C)c(=O)c3c4c(sc32)CN(C(C)=O)CC4)c1 | 0.0891 µM [rising, full curve, poor fit] | –
28 | COc1ccc(-c2nn(-c3ccccc3C)cc2CNCCc2cnc[nH]2)cc1F | 0.501 µM [rising, full curve, poor fit] | –
29 | CC1CCC(C(C)C)C(OC(=O)C[n+]2cc(-c3ccc(Cl)cc3)n3c2CCCCC3)C1 (stereo unspecified) | 22.4 µM [falling, partial curve] | –
30 | C/C(=N\NC(=O)CC#N)c1cc2ccccc2oc1=O | 11.6 µM [falling, partial curve] | –
31 | Cc1ccc(C2=NC(C(F)(F)F)(C(F)(F)F)c3c(n(-c4ccc(F)cc4)c(=O)[nH]c3=O)N2)cc1 | 0.651 µM [rising, full curve, poor fit] | –
32 | COc1cccc(/C=N/NC(=O)c2nnn(-c3nonc3N)c2-c2cccs2)c1 | 8.91 µM [falling, partial curve] | –
33 | Cc1sc2ncnc(OCC(=O)NCc3cccs3)c2c1C | 6.51 µM [falling, single point] | –
34 | Cc1ccc(CNC(=O)CCCc2nc3ccccc3s2)cc1 | 29.1 µM [falling, partial curve, poor fit] | –
35 | Cc1ccc(-n2ncc3c(NCc4ccc5c(c4)OCO5)ncnc32)c(C)c1 | 14.1 µM [falling, partial curve] | –
36 | COc1ccc(/C=N/NC(=O)C(=O)/C=C2\NC3(CCCC3)Cc3ccccc32)cc1 | 4.61 µM [rising, full curve, poor fit] | –
37 | Brc1ccc(/C=N/Nc2ccccn2)cc1 | 0.112 µM [rising, full curve, poor fit] | –
38 | COc1ccc(CCN2CC(C(=O)N(C)Cc3cccnc3)CC2=O)cc1OC (stereo unspecified) | 20.6 µM [falling, single point] | –
39 | O=C(c1ccccc1C(F)(F)F)N1CCN(S(=O)(=O)c2ccccc2)CC1 | 35.5 µM [falling, single point] | –
40 | C#CCOc1ccc(/C=N/NC(=O)c2cccnc2)cc1OCC | – | 2.82 µM [rising, full curve, poor fit]
41 | CC(=O)c1cccc(NC(=O)c2cnn(-c3ccccc3)c2C)c1 | 35.5 µM [falling, single point] | –
42 | CC1CN(c2ncnc3c2cnn3-c2ccc(Cl)cc2)CC(C)O1 (stereo unspecified) | 0.0058 µM [falling, full curve, poor fit] | –

Row | SMILES | AC50 [1] | AC50 [2]
43 | COc1ccc(-c2csc(CCN3N=C(C)CC3=O)n2)cc1 | 15.8 µM [falling, single point] | –
44 | CC(=O)N1CCN(c2ccc(NC(=O)c3ccco3)cc2Cl)CC1 | 8.91 µM [rising, partial curve, poor fit] | –
45 | CCN(CC(=O)NC(C)(C)C)C(=O)c1ccccc1SCC(=O)NC1CCCCCCC1 | 6.31 µM [falling, partial curve, poor fit] | –
46 | Cc1[nH]c(=O)c(C#N)c(C)c1Br | 16.4 µM [rising, partial curve, poor fit] | –
47 | Cc1ccc[n+](-c2[nH]c(=O)sc2/C=N/NC(=O)c2ccccc2[O-])c1 | 16.4 µM [falling, single point] | –
48 | CCN1C(=O)CSc2ccc(C(=O)NCc3ccccc3OC)cc21 | 14.1 µM [falling, partial curve, poor fit] | –
49 | COC(=O)c1c(-c2ccc(C)cc2)csc1NC(=O)C1CC=CCC1C(=O)O (stereo unspecified) | – | 20.6 µM [rising, partial curve, poor fit]
50 | COc1nc2c(C)cccc2cc1-c1noc(-c2ccco2)n1 | 0.731 µM [falling, full curve] | 0.651 µM [rising, full curve, poor fit]
51 | Cc1ccc(C2=N/C(=C\c3cccc(F)c3)C(=O)O2)cc1 | 0.562 µM [rising, partial curve, poor fit] | –
52 | O=NN(CCc1ccncc1)c1ccc(OCc2ccccc2)cc1 | 35.5 µM [falling, single point] | –
53 | Cc1c(C(=O)O)sc2nc(/C=C/c3cccc(O)c3)[nH]c(=O)c12 | 2.24 µM [falling, full curve] | –
54 | CCSc1nnc(NC(=O)NCC(F)(F)F)s1 | 4.61 µM [rising, full curve] | –
55 | CNc1nc(SCc2ccccc2Cl)nc2c1CCCC2 | 16.4 µM [falling, partial curve, poor fit] | –
56 | O=C(c1ccc2c3n(nc2c1)-c1ccc(Cl)cc1CO3)N1CCOCC1 | 12.6 µM [rising, partial curve, poor fit] | –
57 | COc1cc2cc(CCCOC(=O)c3ccc(C(F)(F)F)cc3)oc(=O)c2cc1OC | 29.1 µM [rising, single point] | –
58 | CCN(CC)CC(=O)N1CCCC(C(=O)c2ccccc2OC)C1 (stereo unspecified) | 6.31 µM [rising, single point] | –
59 | FC(F)(F)c1cccc(NC(=S)NNC(=S)Nc2cccc(C(F)(F)F)c2)c1 | 2.82 µM [rising, partial curve, poor fit] | –
60 | O=C1C2C3C=CC(CO)(O3)C2C(=O)N1c1ccc(-c2ccccc2)cc1 (stereo unspecified) | 11.2 µM [falling, partial curve] | –
61 | OC(CC#CCN1CCCC1)(c1ccccc1)c1ccccc1 | 22.4 µM [rising, partial curve, poor fit] | –
62 | OCCCNc1c2ccccc2nc2ccccc12 | – | 6.31 µM [rising, full curve, poor fit]
63 | COc1ccc2c(c1)c1ncn(Cc3ccccn3)c(=O)c1n2C | 1.12 µM [falling, full curve, poor fit] | –
